{
  "sequences": {"note": "Chains of the proteins cited; added tags and fusions are not shown.", "UniProt Q13257": "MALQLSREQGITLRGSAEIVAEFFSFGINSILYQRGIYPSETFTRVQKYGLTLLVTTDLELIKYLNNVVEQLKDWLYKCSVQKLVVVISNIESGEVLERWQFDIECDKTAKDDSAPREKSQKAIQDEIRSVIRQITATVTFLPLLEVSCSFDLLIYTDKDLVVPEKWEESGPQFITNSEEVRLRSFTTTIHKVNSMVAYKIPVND"},
  "source": "patent US20030083261A1",
  "about": "“Class of 12mer peptides that inhibit the function of the mitotic check point protein Mad2” (priority 2001, published 2003)",
  "key": {"[1]": {"target": "Mad2 protein (mitotic checkpoint protein Mad2, purified recombinant) (UniProt Q13257)", "experiment": "NMR HSQC of Mad2 with MBP2"}, "[2]": {"target": "Mad2 protein (mitotic checkpoint protein Mad2, purified recombinant) (UniProt Q13257)", "experiment": "NMR HSQC competition on 15N-Mad2, competitors Cdc20P1 and MBP1"}},
  "note": "No constants are given. Whether binding was seen depends on the method and setting. Some binding calls cover weakened binding; strength is not graded here. Tags and fused reporters may be left off the sequences shown.",
  "data": [
    {"binder": "DARIIKLPVPKP", "note": "[MBP2 (Mad2-binding peptide 2, Cdc20-like peptide)]", "values": [
      {"measurement": "binding", "setting": "[1]", "result": "binds"},
      {"measurement": "binding", "setting": "[2]", "result": "binds"}
    ]}
  ]
}
